Measured values as given in publication PMC12392098.

The chains behind the UniProt entries cited, without tags or fusion partners. Residues count along the entry.
UniProt Q99929, 50-102 R55K: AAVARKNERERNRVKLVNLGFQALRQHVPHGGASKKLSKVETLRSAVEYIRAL
UniProt Q99929, 50-102: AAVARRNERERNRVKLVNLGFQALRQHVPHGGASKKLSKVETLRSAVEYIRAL
UniProt Q99929, 50-102 R55K/V63R: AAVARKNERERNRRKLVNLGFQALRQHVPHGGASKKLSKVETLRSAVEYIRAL
UniProt Q99929, 50-102 V63R: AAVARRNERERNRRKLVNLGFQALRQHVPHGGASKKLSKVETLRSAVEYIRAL

What was measured:
Assay in all cases: EMSA
[1] = target: ASCL2 DBD R5K R55K (human) (UniProt Q99929); details: lower affinity than CAGCTG probe; 32P EMSA: ~50 nM probe, 0.5/1/2 uM protein, 30 min, reagents as in Feng et al., gel at 4 C; recombinant protein; protein details: N-terminal 6xHis, mScarlet fusion; label: 32P (SRI primer strand)
[2] = target: ASCL2 DBD wild type (human) (UniProt Q99929); details: lower affinity than CAGCTG probe; 32P EMSA: ~50 nM probe, 0.5/1/2 uM protein, 30 min, reagents as in Feng et al., gel at 4 C; recombinant protein; protein details: N-terminal 6xHis, mScarlet fusion; label: 32P (SRI primer strand)
[3] = target: ASCL2 DBD R5K+V13R R55K,V63R (human) (UniProt Q99929); details: lower affinity than CACGTG probe; 32P EMSA: ~50 nM probe, 0.5/1/2 uM protein, 30 min, reagents as in Feng et al., gel at 4 C; recombinant protein; protein details: N-terminal 6xHis, mScarlet fusion; label: 32P (SRI primer strand)
[4] = target: ASCL2 DBD V13R V63R (human) (UniProt Q99929); details: lower affinity than CACGTG probe; 32P EMSA: ~50 nM probe, 0.5/1/2 uM protein, 30 min, reagents as in Feng et al., gel at 4 C; recombinant protein; protein details: N-terminal 6xHis, mScarlet fusion; label: 32P (SRI primer strand)

| Sequence | binding result [1] | binding result [2] | binding result [3] | binding result [4] |
| --- | --- | --- | --- | --- |
| TAGCCAATAACTTCGTCCCTCACGTGCATATAAGGAAGATCTAACCACCAATTTGG (double strand) [CACGTG probe] | binds more weakly | binds more weakly | – | – |
| TAGCCAATAACTTCGTCCCTCAGCTGCATATAAGGAAGATCTAACCACCAATTTGG (double strand) [CAGCTG probe] | – | – | binds more weakly | binds more weakly |

Construct, isoform or probe ends are uncertain for at least one entry. Weaker means in comparison with the reference protein, sequence or condition of that experiment.
